In publication PMC4527729, “The Inner Membrane Protein PilG Interacts with DNA and the Secretin PilQ in Transformation”:
These are yes or no findings as the source states them, for the method shown. Binding can be weak; no strength is given.

Key:
Test in all cases: far-Western, overlay or dot blot; reverse orientation: 1 ug of purified full-length or partial PilG resolved by SDS-PAGE, blotted on nitrocellulose, renatured overnight at 4°C; membrane incubated 3 h with 1 ug purified full-length or partial PilQ in 10 ml renaturing buffer; bound PilQ detected with rabbit antiserum; both purified
[1] = molecular target: PilG_(1-256) (N. meningitidis MC58)
[2] = molecular target: PilG full-length (PilG_(FL/1-410)) (N. meningitidis MC58)
[3] = molecular target: PilG_(1-178) (N. meningitidis MC58)

Measured: binding

B1: PilQ full-length (PilQ_(FL/1-761)) (protein, UniProt Q70M91 25-769)
chain: GNITDIKVSSLPNKQKIVKVSFDKEIVNPTGFVTSSPARIALDFEQTGISMDQQVLEYADPLLSKISAAQNSSRARLVLNLNKPGQYNTEVRGNKVWIFINESDDTVSAPARPAVKAAPAAPAKQQAAAPSTKSAVSVSEPFTPAKQQAAAPFTESVVSVSAPFSPAKQQAAASAKQQAAAPAKQQAAAPAKQQAAAPAKQTNIDFRKDGKNAGIIELAALGFAGQPDISQQHDHIIVTLKNHTLPTTLQRSLDVADFKTPVQKVTLKRLNNDTQLIITTAGNWELVNKSAAPGYFTFQVLPKKQNLESGGVNNAPKTFTGRKISLDFQDVEIRTILQILAKESGMNIVASDSVNGKMTLSLKDVPWDQALDLVMQARNLDMRQQGNIVNIAPRDELLAKDKALLQAEKDIADLGALYSQNFQLKYKNVEEFRSILRLDNADTTGNRNTLISGRGSVLIDPATNTLIVTDTRSVIEKFRKLIDELDVPAQQVMIEARIVEAADGFSRDLGVKFGATGKKKLKNDTSAFGWGVNSGFGGDDKWGAETKINLPITAAANSISLVRAISSGALNLELSASESLSKTKTLANPRVLTQNRKEAKIESGYEIPFTVTSIANGGSSTNTELKKAVLGLTVTPNITPDGQIIMTVKINKDSPAQCASGNQTILCISTKNLNTQAMVENGGTLIVGGIYEEDNGNTLTKVPLLGDIPVIGNLFKTRGKKTDRRELLIFITPRIMGTAGNSLRY
binds: all assays above

B2: PilQ_(25-354) (domain or fragment, UniProt Q70M91 25-354)
chain: GNITDIKVSSLPNKQKIVKVSFDKEIVNPTGFVTSSPARIALDFEQTGISMDQQVLEYADPLLSKISAAQNSSRARLVLNLNKPGQYNTEVRGNKVWIFINESDDTVSAPARPAVKAAPAAPAKQQAAAPSTKSAVSVSEPFTPAKQQAAAPFTESVVSVSAPFSPAKQQAAASAKQQAAAPAKQQAAAPAKQQAAAPAKQTNIDFRKDGKNAGIIELAALGFAGQPDISQQHDHIIVTLKNHTLPTTLQRSLDVADFKTPVQKVTLKRLNNDTQLIITTAGNWELVNKSAAPGYFTFQVLPKKQNLESGGVNNAPKTFTGRKISLDFQD
binds: all assays above

B3: PilQ_(25-132) (domain or fragment, UniProt Q70M91 25-132)
chain: GNITDIKVSSLPNKQKIVKVSFDKEIVNPTGFVTSSPARIALDFEQTGISMDQQVLEYADPLLSKISAAQNSSRARLVLNLNKPGQYNTEVRGNKVWIFINESDDTVS
binds: all assays above
